Reference: patent US8569447B2, “Cell-permeable peptide inhibitors of the JNK signal transduction pathway” (Xigen SA, priority 2003, dated 2013)
At least one peptide structure holds a part that was inferred or is arguable (an end, a ring closure or a residue). Non-standard residues stand in square brackets, D forms with d. Residues, ends and D or L forms follow the SMILES beside them.

By UniProt entry, the sequences of proteins in these tests, tags left out. Residues count along the entry.
UniProt P45983, 1-384 isoform P45983-2, species assumed: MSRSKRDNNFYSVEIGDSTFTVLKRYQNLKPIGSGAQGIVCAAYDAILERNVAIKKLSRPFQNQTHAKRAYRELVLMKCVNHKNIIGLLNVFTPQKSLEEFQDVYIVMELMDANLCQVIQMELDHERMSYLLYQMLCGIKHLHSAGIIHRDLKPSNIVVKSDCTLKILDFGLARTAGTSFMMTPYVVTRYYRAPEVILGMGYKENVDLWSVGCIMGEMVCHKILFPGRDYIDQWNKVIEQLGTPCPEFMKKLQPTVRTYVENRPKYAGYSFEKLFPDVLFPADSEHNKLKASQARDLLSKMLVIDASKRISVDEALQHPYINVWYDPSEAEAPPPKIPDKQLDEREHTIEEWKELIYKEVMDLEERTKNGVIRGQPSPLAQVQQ

Assays:
[1] = test system: internal ear of a guinea pig; experiment: Noise-induced hearing loss; assay type: in vivo; details: 1 uM, 120 db, 30 minutes, three days after
[2] = test system: Chicken internal ears; experiment: Streptomycin induced apoptosis (TUNEL); assay type: cell-based
[3] = test system: hair cells; experiment: Neomycin damage of cochlear explant cultures (phalloidin/TUNEL); assay type: cell-based; details: pretreated 5 μM for 24 h, then 1 mM neomycin
[4] = test system: Pancreatic islets cells; experiment: IL-1B induced destruction of pancreatic islets; assay type: cell-based; details: 1 mM for one hour before interleukin 1B 10 ng/ml
[5] = test system: pancreatic islets; experiment: Recovery of pancreatic islets during isolation with collagenase; assay type: cell-based; details: added with collagenase during isolation, after 3 days in culture
[6] = target: recombinant JNK1α1 (Homo sapiens, UniProt P45983); experiment: In vitro kinase assay with recombinant JNK1α1; assay type: biochemical; details: GST-Jun and GST-Elk1 substrates
Experimental: Cellular extracts were prepared by scraping cells in lysis buffer (20 mM Tris-acetate, 1 mM EGTA, 1% Triton X-100, 10 mM p-nitrophenyl-phosphate, 5 mM sodium pyrophosphate, 10 mM β-glycerophosphate, 1 mM dithiothreitol). 25 μg samples were incubated for 1 hour at room temperature with 1 μg GST-c-Jun (amino acid residues 1-89) and 10 μL glutathione-agarose beads (Sigma). The beads were washed four times and then resuspended in the lysis buffer described above. In vitro kinase assays were then performed using recombinant JNK1α1 and 0.5 μg of a substrate selected from the group consisting of GST-fusion proteins (e.g., GST-Jun and GST-Elk1 fusion proteins), casein and histone (Sigma). Reactions were initiated with 10 mM MgCl2 and 10 μM ATP in the presence of 5 μCi ^33P-ATP, and were incubated for 30 minutes at 30° C. The reaction products were separated by SDS-PAGE, and the gels were dried and then exposed to X-ray films (Kodak).
The terms “P-Jun” and “P-Elk1,” as used herein, refer to the radiolabeled (i.e., phosphorylated with ^33P-ATP) forms of GST-Jun and GST-Elk1 substrates, respectively.

[7] = test system: 40 different kinases; experiment: Kinase specificity panel; assay type: biochemical; details: 10 μM peptides, 10 μM ATP
[8] = test system: JNK; experiment: JNK activity in NMDA-treated cortical neurons (GST-c-Jun pull-down kinase assay); assay type: cell-based, rat; details: 100 μM NMDA
[9] = test system: P-c-Jun; experiment: c-Jun phosphorylation in NMDA-treated cortical neurons (Western blot); assay type: cell-based, rat
[10] = test system: c-Fos gene; experiment: NMDA-induced c-Fos expression (real-time PCR); assay type: cell-based, rat; details: relative to actin
[11] = test system: cortical neurons; experiment: NMDA neurotoxicity in cortical neurons (Hoechst, LDH); assay type: cell-based, rat
[12] = test system: young (P14) rats; experiment: Permanent focal ischemia in young (P14) rats; assay type: in vivo; details: 11 mg/kg i.p.
[13] = test system: P-c-Jun; experiment: P-c-Jun immunohistochemistry in permanent ischemia; assay type: in vivo, rats; details: rat pups with permanent ischemia
[14] = test system: recombinant JNK1, JNK2 and JNK3; experiment: Solid phase kinase assay, phosphorylation of c-Jun, ATF2 and Elk1 by recombinant JNKs; assay type: biochemical; details: GST-Jun (a.a. 1-73), 0-250 μM; b72: versus L-TAT-IB and L-TAT-JNKI
[15] = test system: βTC-3 cells; experiment: IL-1β induced pancreatic β-cell death (PI/Hoechst 33342); assay type: cell-based; details: one single addition 1 μM
[16] = test system: WiDr cells; experiment: Irradiation induced cell death; assay type: cell-based, human; details: 30Gy, 1 μM added 30 minutes before irradiation, 48 hours

CC(C)C[C@@H](NC(=O)[C@@H](Cc1ccccc1)NC(=O)[C@H]1CCCN1C(=O)[C@@H](CCC(N)=O)NC(=O)[C@H](NC(=O)[C@H]1CCCN1C(=O)[C@@H](CCCNC(=N)N)NC(=O)[C@@H](CO)NC(=O)[C@@H](CCC(N)=O)NC(=O)[C@@H](CC(=O)O)NC(=O)[C@H](N)[C@H](C)O)C(C)C)C(=O)N[C@H](CC(N)=O)C(=O)N[C@H](CC(C)C)C(=O)N[C@@H](C(=O)N[C@@H](C(=O)N1CCC[C@@H]1C(=O)N[C@H](CCCNC(=N)N)C(=O)N[C@H](CCCCN)C(=O)N1CCC[C@@H]1C(=O)N[C@H](CCCNC(=N)N)C(=O)N1CCC[C@@H]1C(=O)N1CCC[C@@H]1C(=O)N[C@H](CCCNC(=N)N)C(=O)N[C@H](CCCNC(=N)N)C(=O)N[C@H](CCCNC(=N)N)C(=O)N[C@H](CCC(N)=O)C(=O)N[C@H](CCCNC(=N)N)C(=O)N[C@H](CCCNC(=N)N)C(=O)N[C@H](CCCCN)C(=O)N[C@H](CCCCN)C(=O)N[C@H](CCCNC(=N)N)C(=O)NCC(=O)O)[C@H](C)O)[C@H](C)O [D-JNKI, TDQSRPVQPF LNLTTPRKPR PPRRRQR RKKRG] (H-[dT][dD][dQ][dS][dR][dP][dV][dQ][dP][dF][dL][dN][dL][dT][dT][dP][dR][dK][dP][dR][dP][dP][dR][dR][dR][dQ][dR][dR][dK][dK][dR]G-OH)
ciliated structures, histological examination ([1]; 1 ul/hr into right internal ear): completely protected from noise induced destruction | hearing sensitivity ([1]; 1 ul/hr): appear to be preserved | protection from streptomycin induced apoptosis [2]: fully protects internal ears from streptomycin induced apoptosis | protection of hair cells from neomycin damage [3]: greatly protected hair cells from neomycin damage | resistance to IL-1B induced destruction [4]: resist IL-1B induced destruction | yield of islet [5]: increased yield of islet | phosphorylation in vitro of c-Jun and Elk1 using JNK1α1 [6]: ability to prevent the phosphorylation in vitro | interference with the activities of all other kinases [7]: completely failed to interfere with the activities of all other kinases | JNK activation [8]: essentially unchanged | level of P-c-Jun relative to control ([9]; 100 μM NMDA): below even the level of P-c-Jun in the control | increase in P-c-Jun ([9]; after 5 hours of exposure to 100 μM NMDA): completely prevent the increase in P-c-Jun | NMDA-induced transcription of the c-Fos gene [10]: completely prevented | protection of neurons against excitotoxic effects of NMDA ([11]; 100 μM NMDA): completely protected neurons | protection of neurons for extended periods ([11]; 12, 24 and 48 hours post-exposure to 100 μM NMDA): superior in protecting neurons for extended periods of time | neuronal death ([11]; 12 hours post-treatment, 100 μM NMDA): inhibit neuronal death | neuroprotection ([11]; 24 hours post-treatment, 100 μM NMDA): total neuroprotection | protection of neurons against excitotoxic effects of kainate ([11]; data not shown): completely protected neurons | decrease in the infarct volume ([12]; 30 minutes prior to occlusion, 24 hours post-occlusion): 68% | decrease in the infarct volume ([12]; 6 hours post-occlusion): 78% | decrease in the infarct volume ([12]; 12 hours post-occlusion): 49% | P-c-Jun in peri-infarcted cortex [13]: negative

CC(C)C[C@@H](NC(=O)[C@@H](Cc1ccccc1)NC(=O)[C@H]1CCCN1C(=O)[C@@H](CCC(N)=O)NC(=O)[C@H](NC(=O)[C@H]1CCCN1C(=O)[C@@H](CCCNC(=N)N)NC(=O)[C@@H](CO)NC(=O)[C@@H](CCC(N)=O)NC(=O)[C@@H](CC(=O)O)NC(=O)[C@H](N)[C@H](C)O)C(C)C)C(=O)N[C@H](CC(N)=O)C(=O)N[C@H](CC(C)C)C(=O)N[C@@H](C(=O)N[C@@H](C(=O)N1CCC[C@@H]1C(=O)N[C@H](CCCNC(=N)N)C(=O)N[C@H](CCCCN)C(=O)N1CCC[C@@H]1C(=O)N[C@H](CCCNC(=N)N)C(=O)N[C@H](Cc1ccc(O)cc1)C(=O)N[C@@H](C(=O)N[C@H](CC(=O)O)C(=O)N1CCC[C@@H]1C(=O)N1CCC[C@@H]1C(=O)N[C@H](CCCNC(=N)N)C(=O)N[C@H](CCCNC(=N)N)C(=O)N[C@H](CCCNC(=N)N)C(=O)N[C@H](CCC(N)=O)C(=O)N[C@H](CCCNC(=N)N)C(=O)N[C@H](CCCNC(=N)N)C(=O)N[C@H](CCCCN)C(=O)N[C@H](CCCCN)C(=O)N[C@H](CCCNC(=N)N)C(=O)NCC(=O)O)[C@H](C)O)[C@H](C)O)[C@H](C)O [D-TAT-IB1, TDQSRPVQPFLNLTTPRKPRYTDPPRRRQRRKKRG] (H-[dT][dD][dQ][dS][dR][dP][dV][dQ][dP][dF][dL][dN][dL][dT][dT][dP][dR][dK][dP][dR][dY][dT][dD][dP][dP][dR][dR][dR][dQ][dR][dR][dK][dK][dR]G-OH)
fold less efficient than L-TAT-IB1 in decreasing JNK-mediated phosphorylation of c-Jun [14]: 10-20 fold | long term protection from IL-1β induced cell death ([15]; 15 days of IL-1β): able to confer long term (15 day) protection | IL-1 induced apoptosis ([15]; two days of IL-1β): decreased IL-1 induced apoptosis to a similar extent as L-TAT-IB peptides | prevention of irradiation induced apoptosis [16]: able to prevent irradiation induced apoptosis
